# Patent publication US20060014960A1, “Substituted pyridines or pyrimidines, method for their production, agents containing said substances and the use thereof as pesticides” (Bayer CropScience GmbH, priority 2002, published 2006)
# Some results were stated once for a whole list of compounds, not compound by compound.
# Test system: black bean aphids (Aphis fabae)
# Assay: Black bean aphid dip test on germinated field bean seeds (Vicia faba)
# Format: in vivo
# Design: key: compounds were considered to be active when, at a concentration of 500 ppm (based on the content of active compound) or less, their effect on the harmful organisms was 50% or more
# Conditions: concentration of 500 ppm or less; plants and aphids dipped for 5 seconds into aqueous solution of formulated compound; after 3 and 6 days of storage, 25° C.
smiles,measurement,value
CC(C)C(=O)ONC(=O)c1cnccc1C(F)(F)F [Example 1],mortality effect of the compound on the aphids,active
